Laboratory results: patent publication US20030027338A1 (BROOKHAVEN SCIENCE ASSOCIATES, published 2003)
Results are given in words; binding and its absence hold for the method and conditions named. Some results given as binding are weak or reduced against the parent protein; the word gives no strength. For part of these data: Where a sequence is shown, tags or fusion partners need not be part of it.

By UniProt entry, the sequences of proteins in these tests, tags left out. Where a name states a change or a piece, a line headed by the entry shows the natural chain unless it says otherwise. Chains listed by the source or under a name are the forms on record and can include a tag or linker. Residues count along the entry.
CARD1 as crystallised in the Ad12 knob-CARD1 complex (trypsin-treated) (P78310, residues 22-144): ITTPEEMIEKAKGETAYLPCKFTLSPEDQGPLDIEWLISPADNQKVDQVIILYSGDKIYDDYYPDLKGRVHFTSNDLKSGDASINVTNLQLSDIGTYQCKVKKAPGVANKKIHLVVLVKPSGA
his-tagged D1 (refolded amino-terminal IgV domain of human CAR) (P78310, form named): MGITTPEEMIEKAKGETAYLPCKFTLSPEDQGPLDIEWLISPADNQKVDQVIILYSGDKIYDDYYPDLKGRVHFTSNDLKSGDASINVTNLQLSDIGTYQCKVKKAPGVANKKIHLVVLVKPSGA

B1: Ad12 knob (recombinant adenovirus type 12 fiber knob domain, his-tag removed by thrombin) (other)
chain: SNTPYDPLTLWTTPDPPPNCSLIQELDAKLTLCLTKNGSIVNGIVSLVGVKGNLLNIQSTTTTVGVHLVFDEQGRLITSTPTALVPQASWGYRQGQSVSTNTVTNGLGFMPNVSAYPRPNASEAKSQMVSLTYLQGDTSKPITMKVAFNGITSLNGYSLTFMWSGLSNYINQPFSTPSCSFSYITQE
notes: range 401-587; Expressed from pET15b in E. coli; The hexahistidine tag was cleaved with thrombin; Trimer by SDS-PAGE, STEM (60.6 kDa) and gel filtration; also called Ad12 fiber knob
B2: Ad12 knob as crystallised in the Ad12 knob-CARD1 complex (trypsin-treated) (protein)
chain: SNTPYDPLTLWTTPDPPPNCSLIQELDAKLTLCLTKNGSIVNGIVSLVGVKGNLLNIQSTTTTVGVHLVFDEQGRLITSTPTALVPQASWGYRQGQSVSTNTVTNGLGFMPNVSAYPRPNASEAKSQMVSLTYLQGDTSKPITMKVAFNGITSLNGYSLTFMWSGLSNYINQPFSTPSCSFSYITQE

Legend:
[1] = target: his-tagged D1 (refolded amino-terminal IgV domain of human CAR) (human) (UniProt P78310); assay: Superose 6 gel filtration of knob mixed with refolded D1
[2] = target: his-tagged D1 (refolded amino-terminal IgV domain of human CAR) (human) (UniProt P78310); assay: Ni-NTA pull-down with his-tagged D1, SDS-PAGE of bead eluate
[3] = target: CARD1 as crystallised in the Ad12 knob-CARD1 complex (trypsin-treated) (human) (UniProt P78310); assay: complex formed from trypsin-treated proteins, purified by anion exchange and crystallised

| Binder | binding [1] | binding [2] | binding [3] |
| --- | --- | --- | --- |
| B1 | binds | binds |  |
| B2 |  |  | binds |
